Test results reported in the supplement of paper PMC10338343.
± gives the standard deviation. This is a selection; strong and weak results do not stand in their true shares. The uncertainty is large for many entries.

test system: MIWI (PIWIL1) piRISC loaded with piRNA #2 (30 nt); assay: pre-steady-state target cleavage rate (min^-1); MIWI and MILI are mouse PIWI proteins and EfPiwi is from a freshwater sponge; tags in brackets are library labels; higher = faster piRNA-guided slicing of the target; conditions: guide: piRNA #2 5'p-UUAGGUAACCCAGUAGAUCCAGAGGAAUUC; auxiliary factor: 500 nM mouse GTSF1
Method: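 Cleave-'n-Seq: a library of target RNAs (target site embedded in constant flanks, ACAGCATTCCGCGTTAGTGATATCCG... 5' flank; DNA-blocked outside the site) at 0.1 nM was incubated with 1 nM active mouse MILI or MIWI piRISC (synthetic 5'-monophosphorylated piRNA guide) with or without 500 nM mouse GTSF1 at 33 °C for 1 min to 16 h. Uncleaved targets were sequenced and normalised to non-target controls, and the pooled three trials were fitted to a burst-and-steady-state model to give the pre-steady-state cleavage rate (min^-1; k3 is constrained to at most 1e-4). Sequence is the target site only; target names encode pairing extent (gX:gY) and contiguous / 1-mismatch / 2-mismatch / bulge geometry. Fits with R² ≤ 0 are excluded.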

Sequence | pre-steady-state target cleavage rate
CUUAAGGAGACGAUCUACUGGGUUAACUAA | 0.00106 ± 0.0086
CUUAAGGAGACGAUCUCCUGGGUUACCUAA | 0.00112 ± 0.006
CUUAAGGAGACCAUCUACUGGGGUACCUAA | 0.000969 ± 0.0097
CUUAAGGACUGGACUCUACUGGGUUACCUAA | 0.0215 ± 0.023
CUUAACCUCUGGAUCUGACUGGGUUACCUAA | 0.0005 ± 0.017
CUUAAGGAGUGGAUCUACUGGGUAAGCUAA | 0.000177 ± 0.032
CAAUUCCUCUGGAUUUACUGGGUUACCUAA | 0.681 ± 0.062
CUUAUCCUCUGGAUCUACUGGGUAUGGAUA [g8:g26:cont:t1A] | 0.00136 ± 0.007
CUUAAGGAGACGAUCUACUGAGGUUACCUAA | 0.00106 ± 0.0093
CUUAAGGAGACCUAGAUCGGGUUACCUAA | 0.000808 ± 0.0061
CUUAAGGAGACCUAGUACUGGGAAUCCUAA | 0.000465 ± 0.019
CUUAAGGAGACGAUCUAUUGGGUUACCUAA | 0.00308 ± 0.0046
GAAUUCCUCUCCAUCUACUGGGUUACCUAA | 0.706 ± 0.051
CUUAAGGAGACGAUCUACUCGGUUAGCUAA | 0.000163 ± 0.06
CUUAAGGAGAGGUCUACUGGGUUACCUAA | 0.00192 ± 0.004
CUUAAGGAGACGAUCUAGCUGGGUUACCUAA | 0.00079 ± 0.0079
CUUAAGGAGUGGAUCUAACUGGGUUACCUAA | 0.000114 ± 0.041
CUUAAGGAGAGGAUCUACUGGGUAACGUAA | 0.00221 ± 0.0076
CUUAAGGAGACCUAGUACUGGGUUACCCAA | 0.000857 ± 0.0089
GAAUUCCUCCUGGAUCUACUGGGUUACCUAA | 0.445 ± 0.047
CAAUUCCUCUCGAUGUACUGGGUUACCUAA | 0.672 ± 0.056
CUUAAGGAGACCUUCUACUGGGAUUACCUAA | 0.00379 ± 0.0061
CUUAAGGAGACCUAGAUGAGAGGUUACCUAA | 0.00166 ± 0.0046
CUUAAGGAGACCUAGUACUGGGCUACCUAA | 0.00016 ± 0.021

Sequence | pre-steady-state target cleavage rate
CUUAAGGAGACCAUCUACUGGCUAACCUAA | 0.00112 ± 0.0049
CUUAAGGAGAGGAUCUACUGGGUUACCAA | 0.00301 ± 0.0031
CUUAAGGAGAGGAUCUACUGCGUUACCUUA | 0.00283 ± 0.0049
CUUAAGGAGACCUUCUACUUGGUUACCUAA | 0.00134 ± 0.0057
CUUAAGCUCUGGAUCUCUGGGUUACCUAA | 0.00128 ± 0.0093
CUUAAGGAGACCAUCUACUGCGUAACCUAA | 0.000792 ± 0.011
CUUAAGGAGACCAGUCUACUGGGUUACCUAA | 0.00212 ± 0.0039
CAAUUCCUGUGGAUCUACAGGGUUACCUAA | 0.268 ± 0.036
CUUAAGGAGUGCUUCUACUGGGUUACCUAA | 0.00285 ± 0.0038
CUUAACCUCUGGAUCUAACUGGGUUACCUAA | 0.00121 ± 0.0063
CUUAAGGACUGGAUCUACUGGGAAACCUAA | 0.00495 ± 0.013
CUUAAGGAGAGGAUCUACUGGGUUACCAUAA | 0.00299 ± 0.0054
CUUAAGGAGACCUUCUACUGGGUUACCUAAA | 0.00262 ± 0.005
CUUUUCCUCUGGAUCAUGUGGGUUACCUAA | 0.000691 ± 0.012
CUUAACCUCUGGAUCUUACUGGGUUACCUAA | 0.0021 ± 0.0039
CUUAUCCUCUGGAUCAUGUGGGUUACCUAA | 0.000539 ± 0.013
CUUAAGGAGACCAUCUACUCCGUUACCUAA | 0.00266 ± 0.0037
CUUAAGGAGACGAUCAACAGGGUUACCUAA | 0.000326 ± 0.022
CUUAUCCUCUGGAUCUAGCUGGGUUACCUAA | 0.000853 ± 0.0089
CUUAAGGACUGGAACUACAGGGUUACCUAA | 0.00493 ± 0.013
CUUAAGGAGACGAUCUAAUGGGUUACCUAA | 0.00137 ± 0.0058
GAAUUCCUCUGGAACUACUGGGUUACGUAA | 0.657 ± 0.04
CUUAAGGAGACCUACUACUGGGUUACUAA | 0.00166 ± 0.0046
CUAUUCCUCUGGUUCUACUGGGUUACGUAA | 0.629 ± 0.059

Four entries from above, with each value named:
CUUAAGGAGACCAUCUACUGGGGUACCUAA
  pre-steady-state target cleavage rate: 0.000969 ± 0.0097
CUUAAGGACUGGACUCUACUGGGUUACCUAA
  pre-steady-state target cleavage rate: 0.0215 ± 0.023
CUUAACCUCUGGAUCUGACUGGGUUACCUAA
  pre-steady-state target cleavage rate: 0.0005 ± 0.017
CUUAAGGAGUGGAUCUACUGGGUAAGCUAA
  pre-steady-state target cleavage rate: 0.000177 ± 0.032

The list continues:

Sequence | pre-steady-state target cleavage rate
CUUAAGGAGACGAUCUACUGGUUACCUAA | 0.0011 ± 0.0047
CUUAAGGAGAGCAUCUACUGGGUUUCCUAA | 0.00188 ± 0.0056
GAAUACCUCAGGAUCUACUGGGUUACCUAA | 0.421 ± 0.043
CUUAAGGAGACCUUCUACUGGCUUACCAAA | 0.00152 ± 0.0081
CUUAAGGACUGGAUGAACUGGGUUACCUAA | 0.00396 ± 0.013
CUUAAGGAGAGGAUCUACAUGGGUUACCUAA | 0.000156 ± 0.035
CUUAAGGAGAGGAUCUAGUGGGUUUCCUAA | 0.000497 ± 0.019
CUUAAGGAGACCAUCACUGGGUUACCUAA | 0.00178 ± 0.0054
CUUAAGGAGAGGAUCUCACUGGGUUACCUAA | 0.000285 ± 0.021
CUUAAGGAGACCUACUACUGGGUUACCAUAA | 0.00213 ± 0.0041
CUUAAGGAGACCUUCUACUGGGUUACCCAA | 0.00288 ± 0.0058
CUUAAGGAGACCAUCUACUGGGAUUACCUAA | 0.000678 ± 0.016
CUUAAGGAGACGAUGCUACUGGGUUACCUAA | 0.000844 ± 0.008
CUUAAGGACUGGAUCUUCUGGGUAACCUAA | 0.00388 ± 0.013
CUUAAGGAGUGGAUCUACUGGGUUUCCAAA | 0.000258 ± 0.02
CUUAAGGACGGGAUCUACUGGGUUACCUAA | 0.0681 ± 0.038
CUUAAGGAGACCUACUACUGCGUUACCAAA | 0.00111 ± 0.0066
CUUAAGGAGACGACUCUACUGGGUUACCUAA | 0.000635 ± 0.0089
CUUAAGGAGACCAACUACUGGCUUACCUAA | 0.00172 ± 0.0054
CUUAAGGAGUGGAUCUAGUGGGUUACCAAA | 0.00194 ± 0.0056
CUUAAGGACUCGAUCUACUGGGAUACCUAA | 0.0027 ± 0.0088
CUUAAGGAGACCUACUACUGGGUAACCUAA | 0.000935 ± 0.0084
CAAUUCCUCAGGAUCUUCUGGGUUACCUAA | 0.485 ± 0.058
CUUAAGGACUGGUUCUACUGGGUUACCAAA | 0.0104 ± 0.015
